In PubChem BioAssay AID540275 (National Center for Advancing Translational Sciences (NCATS), 2011):
Screen size: about 320,000 compounds; about 620 (0.19%) were called active. Inconclusive results, whose numbers are uncertain, are shown with a selection of clear calls. Rule as the data show it: active = activation above about 80%; inconclusive = between about 30% and that limit; inactive = weaker than that.
Also: 0% is about no effect.

The chains behind the UniProt entries cited, without tags or fusion partners.
UniProt Q8NER1, whole entry, looked up: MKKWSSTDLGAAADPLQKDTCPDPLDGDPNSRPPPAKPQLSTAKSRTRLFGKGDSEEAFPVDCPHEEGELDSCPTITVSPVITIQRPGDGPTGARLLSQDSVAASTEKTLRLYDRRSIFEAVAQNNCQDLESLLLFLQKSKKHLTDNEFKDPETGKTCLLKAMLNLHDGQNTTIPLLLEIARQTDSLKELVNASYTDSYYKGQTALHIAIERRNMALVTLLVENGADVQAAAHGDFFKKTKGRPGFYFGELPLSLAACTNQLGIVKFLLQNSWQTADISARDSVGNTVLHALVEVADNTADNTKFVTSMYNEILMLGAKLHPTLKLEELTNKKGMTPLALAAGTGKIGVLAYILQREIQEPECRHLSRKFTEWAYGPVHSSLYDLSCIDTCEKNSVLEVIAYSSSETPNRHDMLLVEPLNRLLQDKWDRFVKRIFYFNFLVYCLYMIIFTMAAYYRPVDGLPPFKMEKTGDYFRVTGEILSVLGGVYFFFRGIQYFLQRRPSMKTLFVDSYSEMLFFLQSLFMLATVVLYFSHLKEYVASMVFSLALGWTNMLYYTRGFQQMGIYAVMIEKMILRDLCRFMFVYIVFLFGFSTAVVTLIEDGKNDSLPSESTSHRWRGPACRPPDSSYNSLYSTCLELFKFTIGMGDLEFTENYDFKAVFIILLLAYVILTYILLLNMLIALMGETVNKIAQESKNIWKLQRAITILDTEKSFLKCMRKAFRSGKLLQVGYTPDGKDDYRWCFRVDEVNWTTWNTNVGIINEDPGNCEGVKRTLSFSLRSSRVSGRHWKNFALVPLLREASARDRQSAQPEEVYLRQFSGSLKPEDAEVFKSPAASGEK

These compounds were tested against Transient receptor potential cation channel subfamily V member 1 (Homo sapiens) (UniProt Q8NER1) (assay: HTS Assay for Compounds that Act as Agonists of the Vanilloid Receptor 1). Conditions: TRPV1-expressing cells, Fluo-8 calcium influx, agonist mode; at 8.33 µM, stronger effect = higher value.
In short: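 Cells expressing TRPV1 were dye-loaded with Fluo-8 and read kinetically: 10 s baseline, 3 min after compound (agonist portion), then 2 min after EC20 capsaicin (allosteric enhancer portion). Calcium-bound dye fluorescence at 480/520 nm.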
In the case of `Cc1ccc(S(=O)(=O)Nc2ccc(C(=O)N3CCCC3)cc2)cc1`, the activation was inactive: -1.39%.
For `CC(C)C[C@H](NC(=O)c1nc[nH]c1C(=O)NCc1ccccc1)C(=O)OC(C)(C)C`, the activation was inconclusive: 60.7%.
For `Cn1c(SCC(=O)N(Cc2ccccc2)C(C)(C)C)nc2ccccc21`, the activation was inconclusive: 40%.
In the case of `Cc1c(NS(=O)(=O)c2cccs2)cccc1-c1nc2cccnc2s1`, the activation was inactive: 0.647%.
In the case of `Cc1cccc(-n2cc(-c3ccc([N+](=O)[O-])cc3)[nH]c2=S)c1`, the activation was inactive: 12.9%.
In the case of `N#Cc1nc(NCC(F)F)nc(Nc2cc(F)cc(F)c2)n1`, the activation was inactive: -3.02%.
With `Cc1sc(NC(=O)c2ccccc2)c(C#N)c1-c1ccccc1` the activation was inconclusive: 46.3%.
With `Cc1ccc2c(c1)C(=O)CC1(CCC(C(C)(C)C)CC1)O2` (centres undefined) the activation was inconclusive: 32.8%.
With `COC(=O)C1(CCSC)NC(c2ccc(O)cc2)C2C(=O)N(c3ccc(F)cc3)C(=O)C21` (centres undefined) the activation was inactive: 4%.
With `O=C(Nc1cccc(F)c1)C1CCN(S(=O)(=O)c2cccc3nonc23)CC1` the activation was inconclusive: 39.1%.
In the case of `O=C(NNC(=S)NC(=O)c1ccccc1[N+](=O)[O-])c1ccccc1O`, the activation was inactive: -0.542%.
`O=C(Nc1ccccc1)OCCCc1ccccc1` was tested, and the activation was inconclusive: 61.8%.
For `CCCCNC(=S)Nc1ccc([N+](=O)[O-])cc1`, the activation was inconclusive: 32.3%.
For `O=C(NCC[C@@H]1C[C@@H]2C=C[C@H]1C2)c1cc(COc2ccc(F)cc2F)on1`, the activation was inconclusive: 38.5%.
In the case of `O=C1/C(=C/N(C(=O)c2ccco2)c2ccc(Br)cc2)Sc2ccccc21`, the activation was inconclusive: 49.9%.
With `C=CCn1c(SCC(=O)NCC2CCCO2)nc2c([nH]c3ccccc32)c1=O` (centres undefined) the activation was inactive: 0.677%.
In the case of `Cc1cccc(C(=O)NC(=S)NNC(=O)c2cccs2)c1`, the activation was inconclusive: 31.2%.
`COc1ccc(CCNc2ccc(S(=O)(=O)N3CCN(C)CC3)cc2[N+](=O)[O-])cc1` was tested, and the activation was inactive: 4.34%.
`Cn1cc(NC(=O)OCc2ccc(Cl)cc2)c(C(F)(F)F)n1` was tested, and the activation was inconclusive: 30.3%.
In the case of `O=C(CN(c1ccc2c(c1)OCCO2)S(=O)(=O)c1ccccc1)NCc1ccc(Cl)cc1`, the activation was inactive: 2.2%.
For `COc1ccc(Cl)cc1NC(=O)NCc1ccc2c(c1)OCO2`, the activation was inconclusive: 58.8%.
In the case of `CC(=O)c1ccc(NC(=S)NC(NC(=O)c2ccco2)C(Cl)(Cl)Cl)cc1` (centres undefined), the activation was inconclusive: 61.5%.
With `COc1cccc(NC(=O)C2C(c3ccccc3)C2(Cl)Cl)c1` (centres undefined) the activation was inconclusive: 77.6%.
`COc1ccccc1CNC(=O)COC(=O)c1cc(-c2ccco2)nc2ccccc12` was tested, and the activation was inconclusive: 64.3%.
